# Measurements published in the supplement of paper PMC7877785.
# ± gives the uncertainty stated by the source. Many of these values have a large error.
# Assay: self-splicing fitness, log relative to wild type (ln ratio); higher = more splicing; Tetrahymena group I intron in knt gene, E. coli kanamycin selection, DiMSum; sequences stand for … in CUCUCU…GGAGGGAAAAGUUAUCAGGCAUGCACCUGGUAGCUAGUCUUUAAACCAAUAGAUUGCAUCGGUUUAAAAGGCAAGACCGUCAAAUUGCGGGAAAGGGGUCAACAGCCGUUCAGUACCAAGUCUCAGGGGAAACUUUGAGAUGGCCUUGCAAAGGGUAUGGUAAUAAGCUGACGGACAUGGUCCUAACCACGCAGCCAAGUCCUAAGUCAACAGAUCUUCUGUUGAUAUGGAUGCAGUUCACAGACUAAAUGUCGGUCGGGGAAGAUGUAUUCUUCUCAUAAGAUAUAGUCGGACCUCUCCUUAAUGGGAGCUAGCGGAUGAAGUGAUGCAACACUGGAGCCGCUGGGAACUAAUUUGUAUGCGAAAGUAUAUUGAUUAGUUUUGGAGUACUCGUGGUCG
# How it was run: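 Pooled colonies went to amplicon sequencing on an Illumina HiSeq 2500 after six replicate transformations. The plates were LB agar with 100 μg/mL carbenicillin, 50 μM IPTG and 0.2% rhamnose, with or without 25 μg/mL kanamycin, incubated overnight at 37°C or 30°C. The E. coli BL21(DE3) library had all eight P1ex-region intron nucleotides randomised, the intron placed in the knt kanamycin-resistance gene on pET-22b(+). DiMSum fitness is the error-weighted combination of replicate fold changes, kanamycin against none, normalised to wild type.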
sequence,measurement,setting,value
UCCUAGCAAUAUUACGUCAA,self-splicing fitness (ln),30 °C,-3.78 ± 0.6
UUUAAGCAAUAUUACGCUAG,self-splicing fitness (ln),30 °C,-1.54 ± 0.15
same,self-splicing fitness (ln),37 °C,-0.671 ± 0.2
CUGGAGCAAUAUUACGCGAU,self-splicing fitness (ln),30 °C,-2.76 ± 0.16
same,self-splicing fitness (ln),37 °C,-1.9 ± 0.15
ACGGAGCAAUAUUACGUUAU,self-splicing fitness (ln),30 °C,-4.91 ± 0.51
GGAGAGCAAUAUUACGCGGU,self-splicing fitness (ln),37 °C,-2.82 ± 0.75
UUCUAGCAAUAUUACGUAGC,self-splicing fitness (ln),30 °C,-5.78 ± 1
CCCUAGCAAUAUUACGCCUA,self-splicing fitness (ln),30 °C,-4.34 ± 0.72
GUUCAGCAAUAUUACGACUC,self-splicing fitness (ln),30 °C,0.0553 ± 0.47
same,self-splicing fitness (ln),37 °C,0.9 ± 0.54
CCUUAGCAAUAUUACGGGAU,self-splicing fitness (ln),30 °C,-3.68 ± 0.29
same,self-splicing fitness (ln),37 °C,-2.68 ± 0.27
GAAGAGCAAUAUUACGUAAA,self-splicing fitness (ln),30 °C,-4.11 ± 0.6
same,self-splicing fitness (ln),37 °C,-0.64 ± 0.92
UGGGAGCAAUAUUACGCUGC,self-splicing fitness (ln),30 °C,-2.74 ± 0.56
GUCUAGCAAUAUUACGAUAG,self-splicing fitness (ln),30 °C,-4.99 ± 0.58
UAUGAGCAAUAUUACGGGCC,self-splicing fitness (ln),30 °C,-2.16 ± 0.51
UUCUAGCAAUAUUACGAGUC,self-splicing fitness (ln),30 °C,-3.6 ± 1
CGGAAGCAAUAUUACGUUAC,self-splicing fitness (ln),30 °C,-5.47 ± 0.58
same,self-splicing fitness (ln),37 °C,-2.57 ± 0.2
CUGCAGCAAUAUUACGGACA,self-splicing fitness (ln),30 °C,-4 ± 0.6
CGAGAGCAAUAUUACGCUAG,self-splicing fitness (ln),30 °C,-2.84 ± 0.57
UUAGAGCAAUAUUACGUUCC,self-splicing fitness (ln),37 °C,-0.481 ± 0.61
GAGUAGCAAUAUUACGCUCC,self-splicing fitness (ln),30 °C,-4.32 ± 1
same,self-splicing fitness (ln),37 °C,-1.79 ± 1.2
ACUUAGCAAUAUUACGCUGG,self-splicing fitness (ln),30 °C,-1.25 ± 0.54
same,self-splicing fitness (ln),37 °C,-1.14 ± 0.65
UGUUAGCAAUAUUACGCACC,self-splicing fitness (ln),30 °C,-3.07 ± 0.79
same,self-splicing fitness (ln),37 °C,0.254 ± 1.2
GGAAAGCAAUAUUACGGCAU,self-splicing fitness (ln),30 °C,-1.03 ± 0.13
same,self-splicing fitness (ln),37 °C,-0.672 ± 0.15
AAAUAGCAAUAUUACGAACA,self-splicing fitness (ln),30 °C,-0.981 ± 0.14
same,self-splicing fitness (ln),37 °C,-0.0486 ± 0.12
GGUUAGCAAUAUUACGACUG,self-splicing fitness (ln),30 °C,-0.729 ± 0.1
same,self-splicing fitness (ln),37 °C,-0.796 ± 0.12
UGUGAGCAAUAUUACGUCCC,self-splicing fitness (ln),37 °C,-1.03 ± 0.66
UAUUAGCAAUAUUACGUGUC,self-splicing fitness (ln),37 °C,-2.96 ± 0.53
AUCGAGCAAUAUUACGUAUA,self-splicing fitness (ln),37 °C,-2.28 ± 0.65
CGCUAGCAAUAUUACGAAGA,self-splicing fitness (ln),37 °C,-2.31 ± 0.63
ACAUAGCAAUAUUACGCCAA,self-splicing fitness (ln),30 °C,-2.19 ± 0.5
CGAAAGCAAUAUUACGGAAC,self-splicing fitness (ln),37 °C,-2.26 ± 0.64
CCUGAGCAAUAUUACGCAGC,self-splicing fitness (ln),30 °C,-2.97 ± 0.75
AUUUAGCAAUAUUACGCGGC,self-splicing fitness (ln),30 °C,-3.19 ± 0.82
UACGAGCAAUAUUACGAUCC,self-splicing fitness (ln),37 °C,-1.79 ± 0.59
AAGUAGCAAUAUUACGGCGG,self-splicing fitness (ln),30 °C,-2.56 ± 0.17
same,self-splicing fitness (ln),37 °C,-0.842 ± 0.15
CCCAAGCAAUAUUACGUCCC,self-splicing fitness (ln),37 °C,-3.05 ± 0.53
UUUUAGCAAUAUUACGCACC,self-splicing fitness (ln),30 °C,-2.52 ± 0.8
UCCUAGCAAUAUUACGCCUC,self-splicing fitness (ln),30 °C,-2.62 ± 0.27
same,self-splicing fitness (ln),37 °C,-2.29 ± 0.39
CAUGAGCAAUAUUACGGACG,self-splicing fitness (ln),30 °C,-0.912 ± 0.087
same,self-splicing fitness (ln),37 °C,-0.391 ± 0.11
GCGUAGCAAUAUUACGCUGC,self-splicing fitness (ln),30 °C,-4.6 ± 0.72
same,self-splicing fitness (ln),37 °C,-1.98 ± 0.51
ACGGAGCAAUAUUACGACUC,self-splicing fitness (ln),30 °C,-3.21 ± 1.1
same,self-splicing fitness (ln),37 °C,-3.45 ± 1
AAGAAGCAAUAUUACGCUUG,self-splicing fitness (ln),30 °C,-1.23 ± 0.11
same,self-splicing fitness (ln),37 °C,-0.951 ± 0.14
CACAAGCAAUAUUACGUUCG,self-splicing fitness (ln),30 °C,-0.461 ± 0.048
same,self-splicing fitness (ln),37 °C,0.012 ± 0.06
GUGGAGCAAUAUUACGUGCC,self-splicing fitness (ln),30 °C,-2.72 ± 0.54
CCUAAGCAAUAUUACGAUGC,self-splicing fitness (ln),30 °C,-3.49 ± 0.17
same,self-splicing fitness (ln),37 °C,-1.88 ± 0.16
GAAGAGCAAUAUUACGAACG,self-splicing fitness (ln),30 °C,-4.94 ± 0.51
GAGGAGCAAUAUUACGUGAU,self-splicing fitness (ln),30 °C,-4.28 ± 0.73
GUCGAGCAAUAUUACGCACG,self-splicing fitness (ln),37 °C,-1.39 ± 1.2
CCGAAGCAAUAUUACGCCAG,self-splicing fitness (ln),30 °C,-1.32 ± 0.11
same,self-splicing fitness (ln),37 °C,-0.531 ± 0.13
CGCUAGCAAUAUUACGGAAC,self-splicing fitness (ln),30 °C,-3.87 ± 0.52
same,self-splicing fitness (ln),37 °C,-3.81 ± 0.59
GUUAAGCAAUAUUACGGUGG,self-splicing fitness (ln),30 °C,-3.52 ± 0.17
same,self-splicing fitness (ln),37 °C,-1.78 ± 0.15
CGUCAGCAAUAUUACGACGC,self-splicing fitness (ln),30 °C,-4.47 ± 0.51
CGGUAGCAAUAUUACGGGCA,self-splicing fitness (ln),30 °C,-1.75 ± 0.24
same,self-splicing fitness (ln),37 °C,-0.528 ± 0.2
GCUUAGCAAUAUUACGUGCU,self-splicing fitness (ln),30 °C,-2.78 ± 0.19
same,self-splicing fitness (ln),37 °C,-1.41 ± 0.18
GGAAAGCAAUAUUACGCCAG,self-splicing fitness (ln),30 °C,-4.1 ± 0.74
CGAGAGCAAUAUUACGAGCA,self-splicing fitness (ln),37 °C,-2.32 ± 0.55
UUCGAGCAAUAUUACGAGAC,self-splicing fitness (ln),37 °C,-0.595 ± 1
UUCCAGCAAUAUUACGGUUU,self-splicing fitness (ln),30 °C,-0.65 ± 0.064
same,self-splicing fitness (ln),37 °C,-0.427 ± 0.063
GCCCAGCAAUAUUACGCUCG,self-splicing fitness (ln),30 °C,-3.45 ± 0.24
same,self-splicing fitness (ln),37 °C,-2.34 ± 0.27

# Reformatted: entries from further up
sequence	measurement	setting	value
CCCUAGCAAUAUUACGCCUA	self-splicing fitness (ln)	30 °C	-4.34 ± 0.72
GUUCAGCAAUAUUACGACUC	self-splicing fitness (ln)	30 °C	0.0553 ± 0.47
same	self-splicing fitness (ln)	37 °C	0.9 ± 0.54
CCUUAGCAAUAUUACGGGAU	self-splicing fitness (ln)	30 °C	-3.68 ± 0.29

# 3 records picked at random from the list so far, as already listed:
sequence,measurement,setting,value
UGUUAGCAAUAUUACGCACC,self-splicing fitness (ln),30 °C,-3.07 ± 0.79
CACAAGCAAUAUUACGUUCG,self-splicing fitness (ln),37 °C,0.012 ± 0.06
GUUAAGCAAUAUUACGGUGG,self-splicing fitness (ln),37 °C,-1.78 ± 0.15
